PubChem BioAssay AID504786, Drosophila RNAi Screening Center, 2011
The screen tested about 21,000 reagents; shown is a random part of those with a known target gene and a result. 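Primary screen; positive scores mean lost reporter signal, so the sign may be inverted from the usual convention.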 Names joined by + are all predicted targets of the reagent. No sequences are given here.

- Purpose: 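Knock-downs reducing HIF reporter induction by the iron chelator DFO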 (primary screen)
- Cells: Drosophila S2 cells with a stable HIF luciferase reporter
- Knock-down reagent: long dsRNA against Drosophila genes, about 0.2 µg dsRNA per well of a 384-well plate
- Duration: three days of knock-down, then 20 h of DFO before reading
- Treatment: desferrioxamine (DFO) at 100 µM, an iron chelator that mimics hypoxia, for 20 h
- Read-out: 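Firefly luciferase driven by the mouse ldh-a hypoxia-response element, measured after 20 h of 100 µM DFO; z-scores per plate, higher means more signal lost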
- Scale: z-score: higher = stronger loss of HIF reporter signal

Gene | DRSC id | z-score, replicate 1 | z-score, replicate 2 | z-score, replicate 3 | z-score, replicate 4
CG31269 | DRSC15744 | -0.4 | 0.1 | – | –
dia (diaphanous) | DRSC03519 | -0.4 | -0.5 | – | –
CG13258 | DRSC02244 | -0.3 | -0.4 | – | –
snRNP-U1-70K (small ribonucleoprotein particle U1 subunit 70K) | DRSC03612 | -0.3 | -0.1 | -0.8 | -0.1
CG32856 | DRSC13124 | 0.4 | 0.4 | – | –
mr (morula) | DRSC04332 | -0.3 | -0.3 | – | –
CG8584 | DRSC07217 | -0.3 | -0.1 | – | –
Cnx99A + Cnx14D | DRSC16610 | -0.3 | -0.6 | – | –
CG32603 | DRSC19409 | -0.1 | -0.9 | – | –
Gbs-76A (Glycogen binding subunit 76A) | DRSC11081 | -0.3 | -0.5 | – | –
l(1)G0289 (lethal (1) G0289) | DRSC18215 | -0.3 | -0.6 | – | –
CG42674 | DRSC10066 | 0.6 | -0.1 | – | –
CG42674 | DRSC10067 | -0.2 | 0.5 | – | –
CG42674 | DRSC10811 | -0.3 | -0.4 | – | –
CG7213 | DRSC10787 | -0.1 | -0.1 | – | –
CG7564 | DRSC10880 | -0.2 | -0.1 | – | –
CG13318 | DRSC14581 | 0 | -0.9 | – | –
Gr58b (Gustatory receptor 58b) | DRSC04140 | -0.2 | -0.4 | – | –
Kul (Kuzbanian-like) | DRSC15404 | -0.3 | -0.6 | – | –
CG30054 | DRSC05354 | -0.2 | -0.1 | – | –
kat-60L1 (katanin p60-like 1) | DRSC12184 | -0.4 | -0.6 | – | –
CG11267 | DRSC09833 | -0.3 | -0.3 | – | –
stl (stall) | DRSC04396 | -0.3 | 0 | – | –
Npc2b (Niemann-Pick type C-2b) | DRSC15464 | -0.1 | -0.2 | – | –
Balat (Beta-alanine transporter) | DRSC06852 | -0.3 | -0.3 | – | –
wisp (wispy) | DRSC19703 | -0.3 | -0.6 | – | –
CG11426 | DRSC11658 | -0.2 | -0.1 | – | –
bmm (brummer) | DRSC10502 | -0.3 | -0.6 | – | –
CG13983 | DRSC02315 | -0.4 | -0.4 | – | –
CG4440 | DRSC02747 | 0.1 | 0.7 | – | –
bbx + waw | DRSC20575 | -0.5 | -0.6 | – | –
bbx + waw | DRSC20589 | -0.1 | 0.5 | – | –
CG34196 | DRSC05704 | -0.6 | -0.2 | – | –
Pp1-13C (Protein phosphatase 1 at 13C) | DRSC20269 | 0 | 1.1 | – | –

3 entries from above, reduced to “z-score, replicate 2”:
bbx + waw [DRSC20589]	0.5
CG34196 [DRSC05704]	-0.2
Pp1-13C (Protein phosphatase 1 at 13C) [DRSC20269]	1.1

The results go on.
Gene | DRSC id | z-score, replicate 1 | z-score, replicate 2 | z-score, replicate 3 | z-score, replicate 4
LSm1 (Like Sm 1) | DRSC04458 | -0.2 | -1 | – | –
mRRF2 (mitochondrial ribosome recycling factor 2) | DRSC16143 | -0.2 | 0.7 | – | –
MED24 (Mediator complex subunit 24) | DRSC10944 | 1.2 | 0.9 | – | –
CG12620 | DRSC02177 | -0.2 | -0.5 | – | –
Iml1 (Increased minichromosome loss 1) | DRSC08249 | -0.2 | -0.3 | – | –
scaf6 (SR-related CTD associated factor 6) | DRSC10075 | -0.1 | 0.1 | – | –
scaf6 (SR-related CTD associated factor 6) | DRSC10676 | 0.5 | 0.8 | – | –
scaf6 (SR-related CTD associated factor 6) | DRSC10678 | 2 | 1.6 | – | –
CG11263 | DRSC09832 | -0.2 | -0.2 | – | –
dlp (dally-like) | DRSC10281 | 0.1 | 1.1 | – | –
dlp (dally-like) | DRSC10472 | -0.5 | -1.5 | – | –
CG5157 | DRSC10488 | -0.3 | -0.3 | – | –
pths (porthos) | DRSC03171 | 2.5 | 4.2 | – | –
CG8915 | DRSC20119 | -0.1 | -0.1 | – | –
CG6833 | DRSC10721 | 0.1 | 0.1 | – | –
stops (slow termination of phototransduction) | DRSC15095 | -0.4 | -0.5 | – | –
stops (slow termination of phototransduction) | DRSC15096 | -0.3 | -0.6 | – | –
stops (slow termination of phototransduction) | DRSC15097 | -0.2 | -0.3 | – | –
spel1 (spellchecker1) | DRSC03617 | -0.1 | -0.5 | – | –
CG12391 | DRSC06147 | 0 | -0.1 | – | –
E(spl)m3-HLH (Enhancer of split m3, helix-loop-helix) | DRSC16694 | -0.4 | -0.3 | – | –
Ssk (Snakeskin) | DRSC10756 | -0.3 | -0.5 | – | –
Jhbp2 (Juvenile hormone binding protein 2) | DRSC12292 | -0.1 | -0.1 | – | –
bnb (bangles and beads) | DRSC20314 | -0.4 | -0.5 | – | –
Cyp6a8 (Cytochrome P450 6a8) | DRSC07384 | -0.3 | -0.3 | – | –
Act5C (Actin 5C) | DRSC17723 | 0.6 | 0.1 | – | –
wts (warts) | DRSC17096 | 4.3 | 1 | – | –
CG11286 | DRSC14293 | -0.3 | -0.6 | – | –
CG12994 | DRSC19192 | -0.6 | -0.3 | – | –
CG12994 | DRSC19514 | 0.1 | 0.4 | – | –
CG34427 | DRSC09978 | -0.1 | 0.2 | – | –
retn (retained) | DRSC04679 | -0.3 | -0.4 | – | –
Tango11 (Transport and Golgi organization 11) | DRSC03890 | -0.1 | -0.4 | – | –
Tango11 (Transport and Golgi organization 11) | DRSC03892 | 0.4 | 0.5 | – | –
HP6 (Heterochromatin protein 6) | DRSC00471 | -0.3 | -0.3 | – | –
Tbcd (Tubulin-binding cofactor D) | DRSC00273 | -0.3 | 0 | – | –
CG7179 | DRSC03020 | -0.2 | -0.2 | – | –
Nt5b (5' nucleotidase B) | DRSC19976 | 0 | 0.3 | – | –
Nt5b (5' nucleotidase B) | DRSC19977 | -0.3 | -0.5 | – | –
Nt5b (5' nucleotidase B) | DRSC19978 | -0.2 | 0.7 | – | –
CG11619 | DRSC09849 | -0.2 | -0.4 | – | –
cpo (couch potato) | DRSC13265 | -0.5 | -0.1 | – | –
Trs33 (TRAPP subunit 33) | DRSC15990 | -0.6 | -0.8 | – | –
lectin-29Ca | DRSC02635 | -0.3 | 0.4 | – | –
CSN5 (COP9 signalosome subunit 5) | DRSC16592 | -0.2 | -0.1 | – | –
Adgf-E (Adenosine deaminase-related growth factor E) | DRSC05973 | -0.2 | -0.5 | – | –
wus (wurst) | DRSC20278 | -0.3 | -0.3 | – | –
Eig71Eh | DRSC11155 | -0.1 | -0.3 | – | –
Plekhm1 (Pleckstrin homology and RUN domain containing M1) | DRSC04527 | -0.2 | 0.5 | – | –
